We go through 3 molecules from article PMC10310825.

Chains of the proteins cited; added tags and fusions are not shown.
UniProt P04198: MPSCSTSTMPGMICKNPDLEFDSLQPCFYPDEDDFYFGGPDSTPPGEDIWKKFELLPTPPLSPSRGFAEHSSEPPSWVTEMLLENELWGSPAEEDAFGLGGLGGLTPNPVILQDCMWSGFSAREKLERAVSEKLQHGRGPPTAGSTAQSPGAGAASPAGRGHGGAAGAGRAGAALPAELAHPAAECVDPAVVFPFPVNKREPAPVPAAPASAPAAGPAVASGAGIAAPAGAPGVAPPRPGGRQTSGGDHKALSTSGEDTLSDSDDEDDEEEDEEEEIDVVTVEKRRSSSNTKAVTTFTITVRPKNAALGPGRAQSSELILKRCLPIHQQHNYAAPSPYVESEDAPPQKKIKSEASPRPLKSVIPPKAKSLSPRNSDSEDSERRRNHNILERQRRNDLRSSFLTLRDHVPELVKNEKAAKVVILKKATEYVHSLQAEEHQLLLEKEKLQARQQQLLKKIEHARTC
UniProt P25103: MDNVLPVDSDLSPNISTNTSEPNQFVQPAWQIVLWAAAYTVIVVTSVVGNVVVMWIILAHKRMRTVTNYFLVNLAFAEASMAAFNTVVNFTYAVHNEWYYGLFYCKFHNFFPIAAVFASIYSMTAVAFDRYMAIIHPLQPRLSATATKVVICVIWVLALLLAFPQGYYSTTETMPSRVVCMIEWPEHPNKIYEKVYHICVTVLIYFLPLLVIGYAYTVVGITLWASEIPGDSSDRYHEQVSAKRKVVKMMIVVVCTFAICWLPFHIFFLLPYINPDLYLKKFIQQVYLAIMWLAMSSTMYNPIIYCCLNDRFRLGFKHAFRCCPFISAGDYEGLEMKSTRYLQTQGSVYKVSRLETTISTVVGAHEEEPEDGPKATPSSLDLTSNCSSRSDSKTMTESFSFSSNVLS

No constants are given. Whether binding was seen depends on the method and setting. In cells and extracts the contact can be indirect. Some binding calls cover weakened binding; strength is not graded here.

Holding throughout (experiment): co-IP; endogenous proteins in RIPA lysates (about 100 μg) of LNCaP-NE, 22Rv1-NE, 22Rv1-NK1R, LNCaP-NK1R, DU145 and PC-3 cells; IP with anti-N-MYC, anti-Aurora A or anti-PKCα (1:100) overnight at 4 °C, protein A + G agarose, IgG as control, immunoblot; also after NK1R knock-down or MLN8237 treatment (AURKA/N-Myc interaction reduced)
In general terms: In western blotting, separated proteins are transferred to a membrane and probed.

The target of assay [1] is T1, Aurora A (AURKA) (human (endogenous in LNCaP-NE, 22Rv1-NE and other human PCa cell lines)) (UniProt O14965).
T1 sequence: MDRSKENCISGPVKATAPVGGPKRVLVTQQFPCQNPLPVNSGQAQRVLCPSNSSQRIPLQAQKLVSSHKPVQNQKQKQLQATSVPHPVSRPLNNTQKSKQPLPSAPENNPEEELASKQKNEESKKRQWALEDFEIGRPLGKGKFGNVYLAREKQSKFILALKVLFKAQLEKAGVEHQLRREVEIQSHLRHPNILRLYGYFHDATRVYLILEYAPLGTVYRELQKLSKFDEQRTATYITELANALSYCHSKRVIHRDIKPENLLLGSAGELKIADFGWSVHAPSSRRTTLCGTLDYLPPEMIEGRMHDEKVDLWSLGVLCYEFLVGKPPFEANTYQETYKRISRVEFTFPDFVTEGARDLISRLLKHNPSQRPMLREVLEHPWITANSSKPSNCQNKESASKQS

The target of assay [2] is N-Myc (human (endogenous in LNCaP-NE, 22Rv1-NE and other human PCa cell lines)) (UniProt P04198).
In assay [3] the target is PKCα (human (endogenous in LNCaP-NE, 22Rv1-NE and other human PCa cell lines)) (UniProt P17252).

On to “PKCα (from UniProt P17252 1-672) (enzyme)”, for which the binding entry in assay [1] is recorded as “binds”.

Take “neurokinin-1 receptor (NK1R) (from UniProt P25103 1-407)”: the binding entry in assay [2] and in assay [1] was “no binding” in each case.

B1: Aurora A (AURKA) (enzyme, UniProt O14965 1-403)
chain: T1 sequence
On to B1, for which the binding result in assay [3] is reported as “binds”.
